The values that follow come from publication PMC7819943, “Rice protein-binding microarrays: a tool to detect cis-acting elements near promoter regions in rice”.

Protein sequences, listed by entry. Tags and fused reporters are not part of them.
UniProt Q0JBA9, entry or part of it: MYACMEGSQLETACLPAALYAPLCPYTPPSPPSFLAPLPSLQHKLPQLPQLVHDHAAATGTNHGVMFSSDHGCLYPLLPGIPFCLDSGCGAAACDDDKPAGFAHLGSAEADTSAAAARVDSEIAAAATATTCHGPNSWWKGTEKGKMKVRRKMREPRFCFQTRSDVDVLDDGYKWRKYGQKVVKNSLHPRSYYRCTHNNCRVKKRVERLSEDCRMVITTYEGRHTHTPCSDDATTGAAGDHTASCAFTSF

This is one part of the list.

For the assay, the target named is OsWRKY34 (Oryza sativa, UniProt Q0JBA9 1-250). Put plainly: protein-binding microarray (RPBM); PBS, 2% BSA, 51.3 ng/ul salmon testes DNA, 50 uM zinc acetate, 200 nM TF, 25 C, 1 h; high values mean tight binding. Particulars: protein: recombinant; tags: N-terminal polyhistidine and DsRed monomer fusion (pET32a); label: CyDye5-dUTP incorporated in the synthesized complementary strand; 3' TTTTT single-stranded linker to array surface; dsDNA, one strand shown. The method in brief: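 For the binding signal, per-feature fluorescence intensity was read in arbitrary units on an Axon 4000B scanner. Before scanning, a 2% BSA-blocked custom Agilent array made double-stranded with Cy5-dUTP was washed after 1 h at 25 °C with 200 nM protein and 50 µM zinc acetate. The proteins were Ni–NTA-purified transcription factors with N-terminal polyhistidine and DsRed fusions, expressed in E. coli BL21-CodonPlus.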
For the sequence “GAGTGTCCCTTGTTGCTTTCCATCCCTAACTACTAGAGCTCGGAGTCACCTAGTGCAG”, the binding signal was 10600 fluorescence intensity (a.u.).

Consider “GGATGAGGAGGAGGGTGTGGAGGAGGAGGAGGAGGAGGTGCGGAGTCACCTAGTGCAG”, for which the binding signal was 11500 fluorescence intensity (a.u.).

Take “GTGTTTCTTAATTGTTTTTTGCTTTTTATTATATCTATCACGGAGTCACCTAGTGCAG”: the binding signal was 13300 fluorescence intensity (a.u.).

On to “GCACATGTTGTTGTCGCTTGAAAGCTGCAAATCTCCAAATCGGAGTCACCTAGTGCAG”, for which the binding signal is 10000 fluorescence intensity (a.u.).

Regarding “TGTGGATCTTCTTGGTTTGGAGTTCCCTAGCGTGCGTCCGCGGAGTCACCTAGTGCAG”, the binding signal was 8830 fluorescence intensity (a.u.).

Turning to “CATGCACACACTACAGTACTACACTCTCTTCTCTTCTAGACGGAGTCACCTAGTGCAG”, the binding signal is 10600 fluorescence intensity (a.u.).

As to “GCCATCGACTATTCATTCGTCTTCATCACCTGTTGCTTGACGGAGTCACCTAGTGCAG”, the binding signal was 10400 fluorescence intensity (a.u.).

As for “GATATGTCTATCCCGTTGCAATGGGATCTCGTTTTGTAGCCGGAGTCACCTAGTGCAG”, the binding signal is 9040 fluorescence intensity (a.u.).

Take “TTTCTAACACCCATCCATGCGCACAGATAGACCACCATCGCGGAGTCACCTAGTGCAG”: the binding signal was 8540 fluorescence intensity (a.u.).

With “GCACACACAATCCACTCACTCCGTCTCCATTTTAAAATATCGGAGTCACCTAGTGCAG”, the binding signal is 9440 fluorescence intensity (a.u.).

Turning to “TTTGTTGTGGCACCACATTGGCTATGTCCCTTTTGCTTATCGGAGTCACCTAGTGCAG”, the binding signal was 10200 fluorescence intensity (a.u.).

Regarding “GTCTCTCTCACCGTCTCCGTGCTCCTCCGCCGCCCAAGGGCGGAGTCACCTAGTGCAG”, the binding signal is 12900 fluorescence intensity (a.u.).

On to “TTTCTCTCTCCCACTTCACCTCGCGATCTCTCTCTCTCTCCGGAGTCACCTAGTGCAG”, for which the binding signal was 10600 fluorescence intensity (a.u.).

“TCTGCCTCCTTCTCGCGCAGATCCGCCATCGTCGGCGACGCGGAGTCACCTAGTGCAG”: the binding signal was 8740 fluorescence intensity (a.u.).

As to “ATAGTTTGGTCAATGTTTATGTGGTTTTGTGAAATTTACTCGGAGTCACCTAGTGCAG”, the binding signal was 9860 fluorescence intensity (a.u.).

With “ACTGGCGCGGTTTTTTTTCGGGTTTCCCTCGTTTTTTTTCCGGAGTCACCTAGTGCAG”, the binding signal is 8630 fluorescence intensity (a.u.).

As to “ACCTCATAAGCCTCTCTACTTAAGGACAACGCCGCCACCACGGAGTCACCTAGTGCAG”, the binding signal is 8460 fluorescence intensity (a.u.).

“GCGACACGATCTCCAAAACATAACTTTGATTTCTTGTTTCCGGAGTCACCTAGTGCAG”: the binding signal is 10800 fluorescence intensity (a.u.).

As to “GTAACCGGTAGCGTTCATACCCATTTTGATACCTATTCGTCGGAGTCACCTAGTGCAG”, the binding signal is 9130 fluorescence intensity (a.u.).

For the sequence “AACCCATTTCCCATCTCTCTCATCTCCTCTCTCATCCACTCGGAGTCACCTAGTGCAG”, the binding signal was 8440 fluorescence intensity (a.u.).

Consider “TTTCTTCTTCGTCGTCTCGGTTCACTCCTCCGTTCGATCGCGGAGTCACCTAGTGCAG”, for which the binding signal is 10300 fluorescence intensity (a.u.).

With “GCACGTTACAACTTTCGCTTCTTAATTGTTGAACCGATCCCGGAGTCACCTAGTGCAG”, the binding signal was 10100 fluorescence intensity (a.u.).

As to “GTCAGTCGTCACCACTGCCGCTCTCCTCGGGTTCGACTCTCGGAGTCACCTAGTGCAG”, the binding signal is 8030 fluorescence intensity (a.u.).

“AATCCTTTGTTTTACACTTACATTCCTATCAAAATCCTACCGGAGTCACCTAGTGCAG”: the binding signal was 9730 fluorescence intensity (a.u.).

With “GGTTTGGTTTTGTTTAGTGGGTTAGAAGCCAATGAGAGCACGGAGTCACCTAGTGCAG”, the binding signal is 10300 fluorescence intensity (a.u.).

For the sequence “TGTGACTCTTGTCTTTTTGTCTCCGTATACATACATCTCCCGGAGTCACCTAGTGCAG”, the binding signal is 11000 fluorescence intensity (a.u.).

“GGGTATATACCGTGACCCTGATCGCCACACCGACCGGATACGGAGTCACCTAGTGCAG”: the binding signal is 13600 fluorescence intensity (a.u.).

For the sequence “CTCCGCCTCCTCACTCCAATTCCATTCGCCTTCCGCCACCCGGAGTCACCTAGTGCAG”, the binding signal was 11500 fluorescence intensity (a.u.).

“CTCTCCTCTCATCTCATCTCATCTCCAAGGCTGGTCTTTACGGAGTCACCTAGTGCAG”: the binding signal was 8320 fluorescence intensity (a.u.).

For the sequence “CCGCTGTGTGCATATACTAGACAAGCATATTACTCTATCCCGGAGTCACCTAGTGCAG”, the binding signal was 9020 fluorescence intensity (a.u.).

For the sequence “TGGCGGCTCGGTGGCGGAGCTCCGGTGTGGGGTGGTGTGGCGGAGTCACCTAGTGCAG”, the binding signal is 8140 fluorescence intensity (a.u.).

Consider “TAGGCTGATGGGTCTTCATGCTTCGGTTCATCTTCGTCTCCGGAGTCACCTAGTGCAG”, for which the binding signal was 10200 fluorescence intensity (a.u.).

As to “GGGTTTCCTAATGCATCAATGTTCTTTTTTTAACTCGAACCGGAGTCACCTAGTGCAG”, the binding signal was 9970 fluorescence intensity (a.u.).

Consider “TTGTGGGAGGAGGGGATGGAATGATGATGACTCTGTTTTTCGGAGTCACCTAGTGCAG”, for which the binding signal was 8200 fluorescence intensity (a.u.).

In the case of “CATATTGACTCACTCACTGCTATGGCATACTTACAATTATCGGAGTCACCTAGTGCAG”, the binding signal was 9000 fluorescence intensity (a.u.).

In the case of “CTCTGCGTGGGTGCGACCTGTTCCGTGACAGATTTCGATGCGGAGTCACCTAGTGCAG”, the binding signal was 8160 fluorescence intensity (a.u.).

For the sequence “GAAATCCTCCGATCGAAATCATCGAACCGTCTCTTCTACACGGAGTCACCTAGTGCAG”, the binding signal is 8600 fluorescence intensity (a.u.).

As for “TCTCGCCGCCATTGTCACGTCTCACGTGCGCGCCACCACCCGGAGTCACCTAGTGCAG”, the binding signal is 8970 fluorescence intensity (a.u.).

As for “AACCTCTACTGCTCCATATATTTTCTTTCTGTCAGCCCATCGGAGTCACCTAGTGCAG”, the binding signal was 11200 fluorescence intensity (a.u.).

For the sequence “ATCGTCCACTCTCACAGTCTCACACGCGCTAAATTATCATCGGAGTCACCTAGTGCAG”, the binding signal was 14200 fluorescence intensity (a.u.).

Regarding “CTGTCGTTGTTCTGCTAATTAATCTCGTAGCATTATTTACCGGAGTCACCTAGTGCAG”, the binding signal is 8190 fluorescence intensity (a.u.).

As to “CCGCTTGATCTCCGGCGAAGCTCCTCTACCGCCGCCGGCGCGGAGTCACCTAGTGCAG”, the binding signal was 10000 fluorescence intensity (a.u.).
